Data: article PMC7339498
Results are given in words; binding and its absence hold for the method and conditions named. In cells and extracts the contact can be indirect. Some entries that bind do so weakly or less than the wild type.

Chains of the proteins cited; added tags and fusions are not shown.
UniProt P46937: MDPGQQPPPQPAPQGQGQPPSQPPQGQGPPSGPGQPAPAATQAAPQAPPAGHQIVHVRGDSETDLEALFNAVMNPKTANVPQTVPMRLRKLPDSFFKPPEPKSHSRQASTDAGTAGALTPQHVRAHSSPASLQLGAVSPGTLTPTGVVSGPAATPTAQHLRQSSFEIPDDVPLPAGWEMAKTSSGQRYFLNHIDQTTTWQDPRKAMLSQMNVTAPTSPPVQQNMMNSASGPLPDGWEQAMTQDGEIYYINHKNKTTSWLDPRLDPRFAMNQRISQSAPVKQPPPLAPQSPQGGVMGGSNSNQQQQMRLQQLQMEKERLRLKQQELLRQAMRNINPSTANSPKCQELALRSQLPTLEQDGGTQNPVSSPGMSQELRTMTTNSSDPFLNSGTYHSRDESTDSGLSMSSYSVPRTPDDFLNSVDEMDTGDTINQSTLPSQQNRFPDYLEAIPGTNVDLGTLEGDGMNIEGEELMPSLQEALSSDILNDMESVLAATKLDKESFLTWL

What was measured:
[1] = biological target: Yes-associated protein (YAP) (human (endogenous in MDAMB231 or HEK293T)) (UniProt P46937); experiment: co-IP; endogenous proteins; cells (MDAMB231 in the text, HEK293T in the legend) harvested with RIPA lysis buffer; antibody as indicated in the figure
[2] = biological target: phospho-YAP (S127) (human (endogenous in BT549)) (UniProt P46937); experiment: co-IP; endogenous proteins; BT549 cells harvested with RIPA lysis buffer; antibody as indicated in the figure

binding [1]: binds
binding [2]: binds
B1: Ring finger protein 181 (RNF181) (protein, UniProt Q9P0P0 1-153)
chain: MASYFDEHDCEPSDPEQETRTNMLLELARSLFNRMDFEDLGLVVDWDHHLPPPAAKTVVENLPRTVIRGSQAELKCPVCLLEFEEEETAIEMPCHHLFHSSCILPWLSKTNSCPLCRYELPTDDDTYEEHRRDKARKQQQQHRLENLHGAMYT
